For assay [1], the target named is ErbB3-immunoadhesin (ErbB3-IgG fusion, L636 ErbB3-(TR)-DKTH224 VH) (human) (UniProt P21860+P01857). In words: competitive displacement of ^125I-HRGβ1(177-244) from immobilised ErbB3-IgG.
Assay [2] deals with ErbB4-immunoadhesin (ErbB4-IgG fusion, G640 ErbB4-(TR)-DKTH224 VH) (human) (UniProt Q15303+P01857). In words: competitive displacement of ^125I-HRGβ1(177-244) from immobilised ErbB4-IgG.

Sequences of proteins named here, by UniProt entry; tags and fusion partners are left off. A change or cut given only in a name is not applied to a line headed by its entry.
UniProt Q15303: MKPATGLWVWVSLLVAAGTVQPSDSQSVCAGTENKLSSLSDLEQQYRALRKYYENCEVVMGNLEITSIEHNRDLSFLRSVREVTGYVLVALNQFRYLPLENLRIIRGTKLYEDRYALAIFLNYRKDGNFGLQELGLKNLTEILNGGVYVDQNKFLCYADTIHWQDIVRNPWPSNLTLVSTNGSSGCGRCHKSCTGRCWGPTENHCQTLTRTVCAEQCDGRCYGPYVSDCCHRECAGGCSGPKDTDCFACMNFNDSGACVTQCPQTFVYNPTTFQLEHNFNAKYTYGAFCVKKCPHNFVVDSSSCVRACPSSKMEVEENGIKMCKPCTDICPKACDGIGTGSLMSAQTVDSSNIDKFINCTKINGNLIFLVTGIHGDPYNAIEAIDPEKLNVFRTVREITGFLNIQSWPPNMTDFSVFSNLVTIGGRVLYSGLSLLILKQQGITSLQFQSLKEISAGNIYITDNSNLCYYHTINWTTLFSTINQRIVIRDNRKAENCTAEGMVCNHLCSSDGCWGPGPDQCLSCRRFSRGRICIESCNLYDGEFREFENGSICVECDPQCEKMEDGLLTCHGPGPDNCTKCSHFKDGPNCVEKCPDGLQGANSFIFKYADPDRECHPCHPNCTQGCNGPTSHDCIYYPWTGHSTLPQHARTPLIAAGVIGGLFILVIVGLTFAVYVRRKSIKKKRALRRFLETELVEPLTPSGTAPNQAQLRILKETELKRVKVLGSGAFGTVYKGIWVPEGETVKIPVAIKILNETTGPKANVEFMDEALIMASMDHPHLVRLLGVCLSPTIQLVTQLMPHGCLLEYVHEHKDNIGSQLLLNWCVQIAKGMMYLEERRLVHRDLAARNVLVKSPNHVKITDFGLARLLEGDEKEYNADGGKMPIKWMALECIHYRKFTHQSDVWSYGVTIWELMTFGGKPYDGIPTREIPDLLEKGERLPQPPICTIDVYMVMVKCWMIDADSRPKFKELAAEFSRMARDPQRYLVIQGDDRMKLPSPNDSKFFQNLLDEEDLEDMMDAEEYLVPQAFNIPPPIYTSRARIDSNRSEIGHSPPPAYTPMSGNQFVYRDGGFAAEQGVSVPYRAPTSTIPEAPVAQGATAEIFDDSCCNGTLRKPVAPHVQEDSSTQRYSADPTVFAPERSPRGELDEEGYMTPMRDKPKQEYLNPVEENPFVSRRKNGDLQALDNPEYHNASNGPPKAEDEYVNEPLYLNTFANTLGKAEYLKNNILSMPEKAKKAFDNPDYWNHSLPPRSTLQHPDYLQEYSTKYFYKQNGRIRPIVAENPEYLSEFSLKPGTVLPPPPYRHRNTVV

No constants are given. Whether binding was seen depends on the method and setting. Some results given as binding are weak or reduced against the parent protein; the word gives no strength. Tags and fused reporters may be left off the sequences shown.

B1: trxγ-HRG (amino acids 455-768), N-terminal truncated γ-HRG thioredoxin fusion protein (ligand)
chain: QVFIDHPVHLKFNVSLGKAALVGIYGRKGLPPSHTQFDFVELLDGRRLLTQEARSLEGTPRQSRGTVPPSSHETGFIQYLDSGIWHLAFYNDGKESEVVSFLTTAIALPPRLKEMKSQESAAGSKLVLRCETSSEYSSLRFKWFKNGNELNRKNKPQNIKIQKKPGKSELRINKASLADSGEYMCKVISKLGNDSASANITIVESNEIITGMPASTEGAYVSSESPIRISVSTEGANTSSSTSTSTTGTSHLVKCAEKEKTFCVNGGECFMVKDLSNPSRYLCKCPNEFTGDRCQNYVMASFYSTSTPFLSLPE
notes: The results text calls it simply γ-HRG; also called recombinant γ-HRG; bacterial expressed truncated γ-HRG; not shown: N-terminal thioredoxin encoded by the pET-32a TRX fusion vector (Novagen); vector-encoded residues of pET32a between thioredoxin and the BamHI insertion site are not described
As to B1, the binding entry in assay [1] and in assay [2] was “binds” in each case.

The values are drawn from patent publication US6916624 (Genentech, dated 2005).
